# According to the supplement of paper PMC8728848:
# The list shows a part of the results.
# B1: PX14343E-bfa-545-24-545 (Bacteroides fragilis) (protein)
# chain: LDRYPQEELSDGSFWKTPDDANKVVSDLYGYLSTWDQDNDINSDNATMGIKWAAGNVSKGIYDPADQGWSGDYANVRQCNLILSKIDEIPDYPEADKTKALGQVYFFRAYIYFNLIRSFGDVPYIDKPLDLKDMEGITRMPRAEVYEKIMADFDKAIAALPTEWGASDYGRVTKGAAMAMKARAALYYGNWDTAATEAKNVMDLGLYELYDKDNTGKYAELFWEKADGCDEFILVTQFNYPDKTHYLMGWECFPTKGWGGMNPTQSLVDAFEDSEGAPISKSKIYDPTDPFKNRDPRLEVDILHDGEEMYGVTIKVAPLASSGSTGINQHNDATETGYYGQKWLDPSLDPLSDGWNMGKDWVHIRYAEVLLTYAEAKNELQGLDPEAFDAVNQVRRRVGMPELQNTDPSKPTYCATQDDLRQRIRNEWRVEFCLEGGKRMWDIRRWGIAKDVLNAPFEGLKYKIVDNPNDPDKKVDGGKMCILYQGDPIILSGSRYSDNNYLFPVPQSEIDLNPALTQNPGY
# What was measured:
# Assay in all cases: glycan array binding signal (z-score within array); higher = stronger binding
# Conditions in all cases: glycan notation: IUPAC condensed, linker removed
# [1] = target: Neu5Ac(a2-3)Gal(b1-4)GlcNAc(b1-6)GalNAc
# Method in brief: (§1)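 Glycan array binding is given as a within-array Z-score, which can be read as non-binding when negative. The arrays, 3228 of them, came from the Consortium for Functional Glycomics database and were retained only where the protein sequence was available. Z-scores were averaged across arrays of the same protein sequence at different concentrations or buffers and across linkers.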
# [2] = target: Neu5Ac(a2-3)Gal(b1-4)GlcNAc(b1-6)[Gal(b1-3)]GalNAc
# Method in brief: as §1
# [3] = target: Neu5Ac(a2-3)Gal(b1-4)GlcNAc(b1-6)[Neu5Ac(a2-3)Gal(b1-3)]GalNAc
# Method in brief: as §1
# [4] = target: Neu5Ac(a2-3)Gal(b1-4)GlcNAc6S
# Method in brief: as §1
# [5] = target: Neu5Ac(a2-3)Gal(b1-4)[Fuc(a1-3)]GlcNAc
# Method in brief: as §1
# [6] = target: Neu5Ac(a2-3)Gal(b1-4)[Fuc(a1-3)]GlcNAc(b1-2)Man
# Method in brief: as §1
# [7] = target: Neu5Ac(a2-3)Gal(b1-4)[Fuc(a1-3)]GlcNAc(b1-3)Gal
# Method in brief: as §1
# [8] = target: Neu5Ac(a2-3)Gal(b1-4)[Fuc(a1-3)]GlcNAc(b1-3)Gal(b1-4)GlcNAc
# Method in brief: as §1
# [9] = target: Neu5Ac(a2-3)Gal(b1-4)[Fuc(a1-3)]GlcNAc(b1-3)Gal(b1-4)[Fuc(a1-3)]GlcNAc(b1-3)Gal(b1-4)[Fuc(a1-3)]GlcNAc
# Method in brief: as §1
# [10] = target: Neu5Ac(a2-3)Gal(b1-4)[Fuc(a1-3)]GlcNAc(b1-3)GalNAc
# Method in brief: as §1
# [11] = target: Neu5Ac(a2-3)Gal(b1-4)[Fuc(a1-3)]GlcNAc(b1-6)[Gal(b1-3)]GalNAc
# Method in brief: as §1
# [12] = target: Neu5Ac(a2-3)Gal(b1-4)[Fuc(a1-3)]GlcNAc(b1-6)[Neu5Ac(a2-3)Gal(b1-3)]GalNAc
# Method in brief: as §1
# [13] = target: Neu5Ac(a2-3)Gal(b1-4)[Fuc(a1-3)]GlcNAc6S
# Method in brief: as §1
# [14] = target: Neu5Ac(a2-3)Gal6S(b1-4)GlcNAc
# Method in brief: as §1
# [15] = target: Neu5Ac(a2-3)Gal6S(b1-4)[Fuc(a1-3)]GlcNAc
# Method in brief: as §1
# Neu5Ac(a2-3)GalNAc = target: Neu5Ac(a2-3)GalNAc
# Method in brief: as §1
# [16] = target: Neu5Ac(a2-3)GalNAc(b1-4)GlcNAc
# Method in brief: as §1
# [17] = target: Neu5Ac(a2-3)[GalNAc(b1-4)]Gal(b1-4)Glc
# Method in brief: as §1
# [18] = target: Neu5Ac(a2-3)[GalNAc(b1-4)]Gal(b1-4)GlcNAc
# Method in brief: as §1
# [19] = target: Neu5Ac(a2-3)[GalNAc(b1-4)]Gal(b1-4)GlcNAc(b1-3)GalNAc
# Method in brief: as §1
# [20] = target: Neu5Ac(a2-3)[Neu5Ac(a2-6)]GalNAc
# Method in brief: as §1
# Neu5Ac(a2-6)Gal = target: Neu5Ac(a2-6)Gal
# Method in brief: as §1
# [21] = target: Neu5Ac(a2-6)Gal(b1-3)GlcNAc(b1-3)[Gal(b1-4)GlcNAc(b1-6)]Gal(b1-4)Glc
# Method in brief: as §1
# Neu5Ac(a2-6)Gal(b1-4)Glc = target: Neu5Ac(a2-6)Gal(b1-4)Glc
# Method in brief: as §1
# [22] = target: Neu5Ac(a2-6)Gal(b1-4)GlcNAc
# Method in brief: as §1
# [23] = target: Neu5Ac(a2-6)Gal(b1-4)GlcNAc(b1-2)Man
# Method in brief: as §1
# [24] = target: Neu5Ac(a2-6)Gal(b1-4)GlcNAc(b1-2)Man(a1-3)Man(b1-4)GlcNAc(b1-4)GlcNAc
# Method in brief: as §1
# [25] = target: Neu5Ac(a2-6)Gal(b1-4)GlcNAc(b1-2)Man(a1-3)[Gal(b1-4)GlcNAc(b1-2)Man(a1-6)]Man(b1-4)GlcNAc(b1-4)GlcNAc
# Method in brief: as §1
# [26] = target: Neu5Ac(a2-6)Gal(b1-4)GlcNAc(b1-2)Man(a1-3)[GlcNAc(b1-2)Man(a1-6)]Man(b1-4)GlcNAc(b1-4)GlcNAc
# Method in brief: as §1
# [27] = target: Neu5Ac(a2-6)Gal(b1-4)GlcNAc(b1-2)Man(a1-3)[GlcNAc(b1-4)][Neu5Ac(a2-6)Gal(b1-4)GlcNAc(b1-2)Man(a1-6)]Man(b1-4)GlcNAc(b1-4)GlcNAc
# Method in brief: as §1
# [28] = target: Neu5Ac(a2-6)Gal(b1-4)GlcNAc(b1-2)Man(a1-3)[Man(a1-6)]Man(b1-4)GlcNAc(b1-4)GlcNAc
# Method in brief: as §1
# [29] = target: Neu5Ac(a2-6)Gal(b1-4)GlcNAc(b1-2)Man(a1-3)[Neu5Ac(a2-3)Gal(b1-4)GlcNAc(b1-2)Man(a1-6)]Man(b1-4)GlcNAc(b1-4)GlcNAc
# Method in brief: as §1
# [30] = target: Neu5Ac(a2-6)Gal(b1-4)GlcNAc(b1-2)Man(a1-3)[Neu5Ac(a2-6)Gal(b1-4)GlcNAc(b1-2)Man(a1-6)]Man(b1-4)GlcNAc(b1-4)GlcNAc
# Method in brief: as §1
# [31] = target: Neu5Ac(a2-6)Gal(b1-4)GlcNAc(b1-2)Man(a1-3)[Neu5Ac(a2-6)Gal(b1-4)GlcNAc(b1-2)Man(a1-6)]Man(b1-4)GlcNAc(b1-4)[Fuc(a1-6)]GlcNAc
# Method in brief: as §1
# [32] = target: Neu5Ac(a2-6)Gal(b1-4)GlcNAc(b1-2)Man(a1-6)Man(b1-4)GlcNAc(b1-4)GlcNAc
# Method in brief: as §1
# [33] = target: Neu5Ac(a2-6)Gal(b1-4)GlcNAc(b1-2)Man(a1-6)[Gal(b1-4)GlcNAc(b1-2)Man(a1-3)]Man(b1-4)GlcNAc(b1-4)GlcNAc
# Method in brief: as §1
# [34] = target: Neu5Ac(a2-6)Gal(b1-4)GlcNAc(b1-2)Man(a1-6)[GlcNAc(b1-2)Man(a1-3)]Man(b1-4)GlcNAc(b1-4)GlcNAc
# Method in brief: as §1
# [35] = target: Neu5Ac(a2-6)Gal(b1-4)GlcNAc(b1-2)Man(a1-6)[Man(a1-3)]Man(b1-4)GlcNAc(b1-4)GlcNAc
# Method in brief: as §1
# [36] = target: Neu5Ac(a2-6)Gal(b1-4)GlcNAc(b1-2)[Neu5Ac(a2-6)Gal(b1-4)GlcNAc(b1-4)]Man(a1-3)[GlcNAc(b1-4)][Neu5Ac(a2-6)Gal(b1-4)GlcNAc(b1-2)[Neu5Ac(a2-6)Gal(b1-4)GlcNAc(b1-6)]Man(a1-6)]Man(b1-4)GlcNAc(b1-4)GlcNAc
# Method in brief: as §1
# [37] = target: Neu5Ac(a2-6)Gal(b1-4)GlcNAc(b1-2)[Neu5Ac(a2-6)Gal(b1-4)GlcNAc(b1-4)]Man(a1-3)[GlcNAc(b1-4)][Neu5Ac(a2-6)Gal(b1-4)GlcNAc(b1-4)Man(a1-6)]Man(b1-4)GlcNAc(b1-4)GlcNAc
# Method in brief: as §1
# [38] = target: Neu5Ac(a2-6)Gal(b1-4)GlcNAc(b1-2)[Neu5Ac(a2-6)Gal(b1-4)GlcNAc(b1-6)]Man(a1-6)[Neu5Ac(a2-6)Gal(b1-4)GlcNAc(b1-2)Man(a1-3)][GlcNAc(b1-4)]Man(b1-4)GlcNAc(b1-4)GlcNAc
# Method in brief: as §1
# [39] = target: Neu5Ac(a2-6)Gal(b1-4)GlcNAc(b1-3)Gal(b1-3)GlcNAc
# Method in brief: as §1
# [40] = target: Neu5Ac(a2-6)Gal(b1-4)GlcNAc(b1-3)Gal(b1-4)GlcNAc
# Method in brief: as §1
# [41] = target: Neu5Ac(a2-6)Gal(b1-4)GlcNAc(b1-3)Gal(b1-4)GlcNAc(b1-2)Man(a1-3)[Neu5Ac(a2-6)Gal(b1-4)GlcNAc(b1-3)Gal(b1-4)GlcNAc(b1-2)Man(a1-6)]GalNAc
# Method in brief: as §1
# [42] = target: Neu5Ac(a2-6)Gal(b1-4)GlcNAc(b1-3)Gal(b1-4)GlcNAc(b1-3)Gal(b1-4)GlcNAc
# Method in brief: as §1
binder,measurement,setting,value
B1,glycan array binding signal (z-score),[1],-0.59
same,glycan array binding signal (z-score),[2],-0.893
same,glycan array binding signal (z-score),[3],-0.773
same,glycan array binding signal (z-score),[4],-1.34
same,glycan array binding signal (z-score),[5],-0.12
same,glycan array binding signal (z-score),[6],-0.594
same,glycan array binding signal (z-score),[7],-0.954
same,glycan array binding signal (z-score),[8],-0.873
same,glycan array binding signal (z-score),[9],0.318
same,glycan array binding signal (z-score),[10],0.401
same,glycan array binding signal (z-score),[11],1.19
same,glycan array binding signal (z-score),[12],0.423
same,glycan array binding signal (z-score),[13],-0.633
same,glycan array binding signal (z-score),[14],-0.883
same,glycan array binding signal (z-score),[15],-0.423
same,glycan array binding signal (z-score),Neu5Ac(a2-3)GalNAc,-0.857
same,glycan array binding signal (z-score),[16],-0.015
same,glycan array binding signal (z-score),[17],-0.256
same,glycan array binding signal (z-score),[18],-0.263
same,glycan array binding signal (z-score),[19],0.285
same,glycan array binding signal (z-score),[20],-0.87
same,glycan array binding signal (z-score),Neu5Ac(a2-6)Gal,1.24
same,glycan array binding signal (z-score),[21],-0.197
same,glycan array binding signal (z-score),Neu5Ac(a2-6)Gal(b1-4)Glc,-0.096
same,glycan array binding signal (z-score),[22],0.37
same,glycan array binding signal (z-score),[23],-0.34
same,glycan array binding signal (z-score),[24],-0.273
same,glycan array binding signal (z-score),[25],1.11
same,glycan array binding signal (z-score),[26],-0.141
same,glycan array binding signal (z-score),[27],-0.087
same,glycan array binding signal (z-score),[28],-0.928
same,glycan array binding signal (z-score),[29],0.517
same,glycan array binding signal (z-score),[30],-0.641
same,glycan array binding signal (z-score),[31],0.294
same,glycan array binding signal (z-score),[32],-0.81
same,glycan array binding signal (z-score),[33],-0.41
same,glycan array binding signal (z-score),[34],0.074
same,glycan array binding signal (z-score),[35],-0.779
same,glycan array binding signal (z-score),[36],0.142
same,glycan array binding signal (z-score),[37],0.176
same,glycan array binding signal (z-score),[38],0.48
same,glycan array binding signal (z-score),[39],-0.391
same,glycan array binding signal (z-score),[40],-0.139
same,glycan array binding signal (z-score),[41],1.12
same,glycan array binding signal (z-score),[42],-0.438

# Reprinted from above for reference:
binder,measurement,setting,value
B1,glycan array binding signal (z-score),[21],-0.197
same,glycan array binding signal (z-score),Neu5Ac(a2-6)Gal(b1-4)Glc,-0.096
